PubChem BioAssay AID652272 – Drosophila RNAi Screening Center | 2013
Aim: 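Genes whose knock-down decreases or increases Hedgehog reporter output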 (primary screen). Cell system: Drosophila clone 8 (Cl8) cells. Knock-down reagent: long dsRNA against Drosophila genes. Read-out: 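Plate reader light from a firefly reporter under a ptc promoter fragment that responds to Hedgehog, with Renilla light as transfection reference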. Direction: firefly Hh reporter signal: higher = more ptc reporter light; Renilla reference signal: higher = more Renilla control light. Hit rule: 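Hit when the z-score averaged over two replicates is under -2 or over +3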. Calls: active = hit: reporter lowered or raised; inactive = not a hit.
The screen tested about 21,000 reagents; this is a random part of those with a known target gene and a result. Of all reagents, 503 (2.4%) were called active. 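Raw plate light values, not normalised; calls rest on replicate z-scores that were not deposited; hits include reporter decreases as well as increases.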 Entries without a mark were called inactive. A plus sign joins genes that one reagent is predicted to hit. The record does not give: the amount of reagent, the time to read-out.

The opening 3 entries as a preview:
gene knocked down,amplicon,"firefly Hh reporter signal, replicate 1","firefly Hh reporter signal, replicate 2","firefly Hh reporter signal, replicate 3","Renilla reference signal, replicate 1","Renilla reference signal, replicate 2"
ppl (pumpless),DRSC11899,1.32e5,63847,,4459,2429
CG8929,DRSC07298,1.78e5,1.06e5,,7123,4859
Fum3 (Fumarase 3),DRSC10592,30624,45197,35772,4793,2704

Results, from the first entry:
gene knocked down,amplicon,"firefly Hh reporter signal, replicate 1","firefly Hh reporter signal, replicate 2","firefly Hh reporter signal, replicate 3","Renilla reference signal, replicate 1","Renilla reference signal, replicate 2"
ppl (pumpless),DRSC11899,1.32e5,63847,,4459,2429
CG8929,DRSC07298,1.78e5,1.06e5,,7123,4859
Fum3 (Fumarase 3),DRSC10592,30624,45197,35772,4793,2704
CG10650,DRSC02085,64344,97040,,2823,4065
ClpP (Caseinolytic protease proteolytic subunit),DRSC02806,75769,45429,,2516,1814
Sf3b3 (Splicing factor 3b subunit 3),DRSC08370,59242,67037,,3751,3703
tst + CG10375,DRSC14237,88768,50594,,3829,1978
CG10587,DRSC11627,99288,1.22e5,,3805,3481
sif (still life),DRSC08759,1.14e5,2.35e5,,9286,8187
sif (still life),DRSC11395,86788,96951,,7788,6648
CG3358,DRSC04992,1.21e5,1.03e5,,4301,3909
CG10286,DRSC12520,75417,51245,,2826,1693
bun (bunched),DRSC01253,4.75e5,2.02e5,,24523,10137
bun (bunched),DRSC01255,4.72e5,1.27e5,,16315,6288
bun (bunched),DRSC03500,48836,29536,,2528,1373
Efhc1.2 (EF-hand domain containing 1.2),DRSC06027,72084,62685,,2993,2796
gkt (glaikit),DRSC00821,1.20e5,61104,,3088,6733
CG11975,DRSC14452,1.16e5,80372,,5197,3445
CG1632,DRSC17558,5.58e5,1.71e5,,29957,3424
CG1632,DRSC18110,98610,3.38e5,,2752,11021
CG17270,DRSC15209,1.47e5,81013,,5917,3370
unc-5,DRSC05545,4.65e5,2.50e5,52486,2805,6093
unc-5,DRSC07711,89344,92704,,2630,6120
unc-5,DRSC07712,81584,76580,,2187,4448
